This is an account of results in article PMC5072578.

Amino acid sequences for entries named in this document (tags omitted).
UniProt P42224: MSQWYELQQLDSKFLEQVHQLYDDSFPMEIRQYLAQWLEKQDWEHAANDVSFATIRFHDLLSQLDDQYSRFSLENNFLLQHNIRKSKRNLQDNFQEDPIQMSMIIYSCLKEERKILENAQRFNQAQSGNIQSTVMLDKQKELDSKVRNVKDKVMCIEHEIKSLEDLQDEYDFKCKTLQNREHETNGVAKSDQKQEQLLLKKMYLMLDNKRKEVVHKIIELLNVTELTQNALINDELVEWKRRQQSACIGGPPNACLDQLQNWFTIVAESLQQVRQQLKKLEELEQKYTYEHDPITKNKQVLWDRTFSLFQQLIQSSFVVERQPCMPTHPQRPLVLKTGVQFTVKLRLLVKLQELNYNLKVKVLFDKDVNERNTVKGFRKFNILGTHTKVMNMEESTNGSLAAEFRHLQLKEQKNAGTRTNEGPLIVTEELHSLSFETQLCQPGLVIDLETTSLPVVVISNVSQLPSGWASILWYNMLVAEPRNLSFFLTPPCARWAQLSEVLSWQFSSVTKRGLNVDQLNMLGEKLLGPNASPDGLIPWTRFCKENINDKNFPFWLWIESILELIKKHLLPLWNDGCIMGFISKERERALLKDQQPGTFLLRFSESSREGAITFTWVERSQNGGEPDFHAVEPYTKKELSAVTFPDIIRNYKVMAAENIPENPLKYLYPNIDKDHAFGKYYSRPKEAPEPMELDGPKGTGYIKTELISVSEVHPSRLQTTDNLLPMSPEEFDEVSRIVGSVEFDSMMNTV

Test [1] deals with T1, Flag-NLK (Nemo-like kinase) (mouse) (UniProt O54949).
T1 sequence: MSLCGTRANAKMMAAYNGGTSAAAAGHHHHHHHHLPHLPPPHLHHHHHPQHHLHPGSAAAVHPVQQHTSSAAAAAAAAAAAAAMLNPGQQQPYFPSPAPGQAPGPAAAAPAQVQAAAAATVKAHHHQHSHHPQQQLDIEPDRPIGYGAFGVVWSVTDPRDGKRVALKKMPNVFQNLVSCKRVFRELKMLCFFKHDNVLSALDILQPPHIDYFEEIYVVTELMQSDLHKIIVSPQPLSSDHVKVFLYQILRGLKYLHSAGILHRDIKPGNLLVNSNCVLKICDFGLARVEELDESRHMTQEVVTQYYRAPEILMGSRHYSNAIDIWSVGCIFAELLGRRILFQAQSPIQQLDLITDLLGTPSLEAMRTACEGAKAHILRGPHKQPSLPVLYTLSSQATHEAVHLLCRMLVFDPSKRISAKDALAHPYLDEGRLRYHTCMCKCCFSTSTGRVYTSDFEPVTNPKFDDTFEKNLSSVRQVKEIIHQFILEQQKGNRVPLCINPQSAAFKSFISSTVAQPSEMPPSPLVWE
The experiment in a line: co-IP; HEK293 cells transfected with Flag-NLK for 48 hours, lysed, anti-Flag M2 magnetic beads; endogenous proteins detected by Western blotting. Background: Immunoblotting shows a protein as a band on a membrane.

The target of test [2] is T2, NLK expressed from a recombinant adenovirus in neonatal rat cardiac myocytes (mouse) (UniProt O54949).
T2 sequence: T1 sequence
The experiment in a line: co-IP; neonatal rat cardiac myocytes infected with NLK adenovirus for 24 hours; lysate with NLK antibody or normal rabbit IgG for 4 hours, protein A magnetic beads for 2 hours; Western blotting for Stat1.

These are yes or no findings as the source states them, for the method shown. Binding seen in cells or lysates may run through a third protein. Some results given as binding are weak or reduced against the parent protein; the word gives no strength. For some assays here: Where a sequence is shown, tags or fusion partners need not be part of it.

As for “Stat1 (endogenous, HEK293 cells) (from UniProt P42224 1-750)”, the binding entry in test [1] is given as “binds”.

B1: Stat1 (endogenous, neonatal rat cardiac myocytes) (protein, UniProt Q9QXK0 1-749)
chain: MSQWFELQQLDSKFLEQVHQLYDDSFPMEIRQYLAQWLEKQDWEHAAYDVSFATIRFHDLLSQLDDQYSRFSLENNFLLQHNIRKSKRNLQDNFQEDPVQMSMIIHNCLKEERKILENAQRFNQAQEGNIQNTVMLDKQKELDSKVRNVKDQVMCIEHEIKTLEDLQDEYDFKCKTSQNRESEANGVAKSDQKQEQLLLHKMFLMLDNKRKEIIHKIRELLNSIELTQNTLINDELVEWKRRQQSACIGGPPNACLDQLQSWFTIVAESLQQVRQQLKKLEELEQKFTYEQDPITKNKQVLSDRTFVLFQQLIQSSFVVERQPCMPTHPQRPLVLKTGVQFTVKLRLLVKLQELNYNLKVKVSFDKDVNEKNTVKGFRKFNILGTHTKVMNMEESTNGSLAAEFRHLQLKEQKNAGNRTNEGPLIVTEELHSLSFETQLCQPGLVIDLETTSLPVVVISNVSQLPSGWASILWYNMLVTEPRNLSFFLNPPCAWWSQLSEVLSWQFSSVTKRGLNADQLSMLGEKLLGPNAGPDGLIPWTRFCKENINDKNFSFWPWIDTILELIKKHLLCLWNDGCIMGFISKERERALLKDQQPGTFLLRFSESSREGAITFTWVERSQNGGEPDFHAVEPYTKKELSAVTFPDIIRNYKVMAAENIPENPLKYLYPNIDKDHAFGKYYSRPKEAPEPMELDDPKRTGYIKTELISVSEVHPSRLQSTENLLPMSPEEFDEMSKIVGSEFDSMMSAV
As for B1, in test [2], the binding result is reported as “binds”.
